Paper doi:10.1101/2021.04.22.440930

The chains behind the UniProt entries cited, without tags or fusion partners. Where a name states a change or a piece, a line headed by the entry shows the natural chain unless it says otherwise.
UniProt Q13283: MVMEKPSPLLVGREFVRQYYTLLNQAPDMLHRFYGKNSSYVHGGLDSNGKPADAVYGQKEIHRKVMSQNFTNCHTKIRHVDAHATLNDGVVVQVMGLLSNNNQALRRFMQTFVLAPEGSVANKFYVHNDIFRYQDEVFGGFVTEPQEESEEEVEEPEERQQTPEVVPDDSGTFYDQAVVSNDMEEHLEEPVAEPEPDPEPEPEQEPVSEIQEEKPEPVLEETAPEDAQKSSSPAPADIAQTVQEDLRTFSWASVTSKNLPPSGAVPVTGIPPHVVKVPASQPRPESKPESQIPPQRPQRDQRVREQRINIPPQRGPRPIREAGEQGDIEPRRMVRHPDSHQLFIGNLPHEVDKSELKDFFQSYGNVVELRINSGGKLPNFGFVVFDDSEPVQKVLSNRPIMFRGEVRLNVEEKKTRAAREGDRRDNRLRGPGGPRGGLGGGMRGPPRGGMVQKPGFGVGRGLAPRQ

Target: GFP-G3BP1 10KR (UniProt Q13283)
Assay: co-IP

binding: binds weakly
Substance: valosin-containing protein (VCP), endogenous (from UniProt P55072 1-806) (enzyme)

These are yes or no findings as the source states them, for the method shown. Binding seen in cells or lysates may run through a third protein. A result given as binding can be weak or reduced; the word gives no strength.
